# Values from PubChem BioAssay AID504764 (Drosophila RNAi Screening Center, 2011)
# Assay: 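Genome-wide screen for regulators of Notch-driven gene expression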 (primary screen)
# Cell system: Drosophila Kc167 cells
# Knock-down reagent: long dsRNA against Drosophila genes
# Time to read-out: about 5 days (4 days dsRNA, then 24 h after transfection)
# Treatment: transfection of constitutively active membrane-tethered Notch lacking the extracellular domain, read 24 h later
# Read-out: 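Firefly luciferase from an E(spl)m3 reporter with active Notch, plus control-promoter and uninduced reporter wells for normalisation; unnormalised counts, duplicate wells a and b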
# Reading the numbers: induced reporter light, run 1, well a and induced reporter light, run 1, well b: higher = more light from the Notch target reporter with active Notch; control promoter light, run 1, well a and control promoter light, run 1, well b: higher = more light from the viral control promoter (cell number, transfection, viability); uninduced reporter light, run 1, well a: higher = more light from the Notch target reporter without active Notch
# Active means: 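Hit if the duplicate-averaged log2 ratio of induced to control-promoter light gives a plate-wise z beyond ±2, or induced to uninduced beyond ±1.8; weak-control or discordant-duplicate wells dropped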
# Calls: active = modifier hit (raised or lowered Notch signal); inactive = not a hit
# The screen tested about 22,000 reagents; below is a random part of those with a known target gene and a result. In the full data, 403 (1.9%) were called active. 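Unnormalised raw counts per well; ratio z-scores behind the hit calls and whether each hit raises or lowers signal are not deposited.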 Names joined by + are all predicted targets of the reagent. The record does not give: the amount of reagent.
predicted target,DRSC id,"induced reporter light, run 1, well a","induced reporter light, run 1, well b","control promoter light, run 1, well a","control promoter light, run 1, well b","uninduced reporter light, run 1, well a",call
CG8353,DRSC03084,1.44e5,1.41e5,78765,1.08e5,18580,inactive
CG34178 + CG34177,DRSC00351,1.74e5,1.79e5,1.57e5,1.99e5,11940,inactive
CG8620,DRSC11020,1.66e5,1.34e5,1.69e5,1.20e5,7282,inactive
CG13840,DRSC14690,60260,65245,51710,57245,8420,inactive
Sdc,DRSC04654,51945,51000,37305,24045,2195,inactive
CG17361,DRSC10266,2.78e5,1.95e5,78955,7500,20630,inactive
CG15097,DRSC06526,38525,48470,58970,70375,3455,inactive
Qtzl,DRSC01221,1.31e5,1.26e5,1.77e5,1.35e5,8415,inactive
CG7236,DRSC03037,91950,83100,1.16e5,98165,5350,inactive
nis,DRSC00290,1.87e5,2.46e5,2.37e5,2.67e5,18560,inactive
mtm,DRSC03576,32710,39980,27100,28745,2810,inactive
mey,DRSC14468,1.83e5,2.16e5,2.79e5,2.88e5,14000,inactive
CG14687,DRSC14910,63910,67285,63980,42915,3515,inactive
knon,DRSC07049,1.55e5,1.19e5,1.39e5,1.48e5,12915,inactive
CG8945,DRSC20129,91935,74270,98755,81065,11970,inactive
CG8945,DRSC20130,72040,55480,66845,81145,9370,inactive
CG33340,DRSC14615,1.87e5,1.44e5,2.30e5,2.57e5,17140,inactive
Pif1A,DRSC12708,1.32e5,1.47e5,1.27e5,1.58e5,11442,inactive
Pif1A,DRSC14383,92040,72320,86330,60285,6500,inactive
RpL22,DRSC18707,1.20e5,1.06e5,1.72e5,1.56e5,8575,inactive
CG13560,DRSC04198,1.85e5,1.57e5,1.88e5,1.89e5,12990,inactive
CG5412,DRSC15796,69900,57115,48635,50855,4855,active
CG14147,DRSC10149,1.79e5,1.32e5,1.53e5,1.68e5,7400,inactive
CG2694,DRSC18470,1.73e5,2.47e5,2.05e5,3.06e5,14485,inactive
Fmo-2,DRSC04983,1.60e5,1.54e5,1.56e5,1.97e5,13165,inactive
CG3257,DRSC04351,1.67e5,1.35e5,1.23e5,1.82e5,12310,inactive
yellow-g2,DRSC08338,1.23e5,91755,1.51e5,1.47e5,6125,inactive
Or82a,DRSC11996,2.02e5,2.08e5,2.87e5,2.83e5,21680,active
CG31870,DRSC21681,,,,,,inactive
CG14420,DRSC17917,1.16e5,1.04e5,1.50e5,1.78e5,8985,inactive

Just “induced reporter light, run 1, well a” (5 entries from above):
CG2694 [DRSC18470]	1.73e5
Fmo-2 [DRSC04983]	1.60e5
CG3257 [DRSC04351]	1.67e5
yellow-g2 [DRSC08338]	1.23e5
Or82a [DRSC11996]	2.02e5

Next entries follow:
predicted target,DRSC id,"induced reporter light, run 1, well a","induced reporter light, run 1, well b","control promoter light, run 1, well a","control promoter light, run 1, well b","uninduced reporter light, run 1, well a",call
Cpr47Ef,DRSC06336,1.45e5,1.57e5,2.03e5,2.27e5,13615,inactive
CG15403,DRSC00417,1.42e5,1.41e5,1.68e5,1.81e5,9415,inactive
CG1265,DRSC08288,1.33e5,1.47e5,2.31e5,2.16e5,13655,inactive
CG11892,DRSC14428,1.61e5,2.32e5,2.60e5,2.51e5,12325,inactive
CG13203,DRSC06327,1.31e5,1.33e5,1.41e5,1.76e5,12000,inactive
CG14830,DRSC08876,1.76e5,1.76e5,2.10e5,3.32e5,10950,active
CG14830,DRSC10200,3.24e5,2.24e5,2.36e5,2.46e5,12138,inactive
CG34451,DRSC09388,1.91e5,1.97e5,3.04e5,3.18e5,20300,inactive
CG34451,DRSC09389,1.81e5,2.20e5,2.29e5,2.20e5,19142,inactive
CG10347,DRSC19352,1.35e5,1.59e5,3.19e5,2.56e5,11340,inactive
Octbeta3R,DRSC15351,1.08e5,87125,99680,66665,10775,inactive
Octbeta3R,DRSC16191,49210,46025,60005,35245,4045,inactive
Octbeta3R,DRSC21902,,,,,,inactive
CG34040,DRSC03902,70300,70545,67525,73595,8600,inactive
CG12506,DRSC00347,99685,1.61e5,1.51e5,96155,8490,inactive
CG8952,DRSC20133,82280,86410,1.38e5,1.03e5,5860,inactive
Gr10a,DRSC18897,1.01e5,1.02e5,1.30e5,1.08e5,7415,inactive
CG11906,DRSC06096,1.11e5,86620,1.35e5,1.60e5,6415,inactive
CG15160,DRSC02461,81930,57190,74340,68715,2592,inactive
CG7810,DRSC03072,1.73e5,2.26e5,1.63e5,1.99e5,15960,inactive
